Measurements taken from paper PMC7819943, “Rice protein-binding microarrays: a tool to detect cis-acting elements near promoter regions in rice”.
The other results are listed elsewhere or left out.

Target: T1, OsSMF1 (Oryza sativa, UniProt Q6ZLB0 1-436)
T1 sequence: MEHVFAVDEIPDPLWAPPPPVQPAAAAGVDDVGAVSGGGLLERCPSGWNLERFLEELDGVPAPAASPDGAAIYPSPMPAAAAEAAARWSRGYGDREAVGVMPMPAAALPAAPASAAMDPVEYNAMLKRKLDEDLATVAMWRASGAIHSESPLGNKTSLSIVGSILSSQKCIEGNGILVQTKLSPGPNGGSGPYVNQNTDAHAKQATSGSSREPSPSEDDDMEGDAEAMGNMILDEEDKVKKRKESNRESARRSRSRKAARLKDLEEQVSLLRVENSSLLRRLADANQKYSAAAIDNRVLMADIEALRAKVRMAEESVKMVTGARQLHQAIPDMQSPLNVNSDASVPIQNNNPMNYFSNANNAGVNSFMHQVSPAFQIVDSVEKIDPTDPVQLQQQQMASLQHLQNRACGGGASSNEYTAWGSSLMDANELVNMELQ
Experiment: protein-binding microarray (RPBM); PBS, 2% BSA, 51.3 ng/ul salmon testes DNA, 50 uM zinc acetate, 200 nM TF, 25 C, 1 h; high values mean tight binding
Conditions: protein: recombinant; tags: N-terminal polyhistidine and DsRed monomer fusion (pET32a); chain copies: 2; label: CyDye5-dUTP incorporated in the synthesized complementary strand; 3' TTTTT single-stranded linker to array surface; dsDNA, one strand shown
Summary of the method: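 Transcription factors were made in E. coli BL21-CodonPlus as N-terminal fusions to a polyhistidine tag and DsRed, then purified on Ni–NTA. After primer extension with Cy5-dUTP and blocking with 2% BSA, a custom Agilent array was exposed for 1 h at 25 °C to 200 nM protein in PBS, 2% BSA, salmon testes DNA and 50 µM zinc acetate. Washed arrays were scanned on an Axon 4000B, and the binding signal is per-feature fluorescence intensity in arbitrary units.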

Row | Sequence | binding signal
1 | TTGGTAATTTCATTCAGACATTGTTTGCAAGATTGCACCACGGAGTCACCTAGTGCAG | 3200 fluorescence intensity (a.u.)
2 | GCAGATATATACTGTAGCGATGGAGTAATATGATCGTCGACGGAGTCACCTAGTGCAG | 4150 fluorescence intensity (a.u.)
3 | AAAGTTTGTATACACGTATACAAAGTTTATATACGTGTATCGGAGTCACCTAGTGCAG | 4700 fluorescence intensity (a.u.)
4 | CTCTCTCTCTCGCCTCCGCCTCATCATCCTCTCCTCTCCTCGGAGTCACCTAGTGCAG | 3240 fluorescence intensity (a.u.)
5 | TGTTGCACATGTCCCTTTCTTCCATCGTCACAACCTTCAGCGGAGTCACCTAGTGCAG | 10900 fluorescence intensity (a.u.)
6 | CCCCAATCAACTTCTTCAATTATCCATGCATTCCTTACGCCGGAGTCACCTAGTGCAG | 29000 fluorescence intensity (a.u.)
7 | GTAACTACTAGTACCTGCCACCTCCCAGTTGCTCAGGCTTCGGAGTCACCTAGTGCAG | 3150 fluorescence intensity (a.u.)
8 | CGATAATGATTCTAAGCCGATGACGTCTTTGCCGATTACCCGGAGTCACCTAGTGCAG | 5020 fluorescence intensity (a.u.)
9 | GTTATGTAAACTCTTTAGCCCATATTGTATATGTGGCATCCGGAGTCACCTAGTGCAG | 4970 fluorescence intensity (a.u.)
10 | AGAAATTGCATGGCTTACTTGGCCGTGTTTGTCATAGACCCGGAGTCACCTAGTGCAG | 3750 fluorescence intensity (a.u.)
11 | TGGCTGCTCACCATTGCAAGAATACTGTTCGACGACTAGCCGGAGTCACCTAGTGCAG | 5560 fluorescence intensity (a.u.)
12 | GCGTGGGGCGCCGGTGGCGGAGGGTGGGGACGACAACCAGCGGAGTCACCTAGTGCAG | 65500 fluorescence intensity (a.u.)
13 | TTTTCTCTGTATGTATCCAGAAGGATATGCCACCTGGATGCGGAGTCACCTAGTGCAG | 4660 fluorescence intensity (a.u.)
14 | TATATTCTCATGCACCAAGCAACCACACGTACACCTATATCGGAGTCACCTAGTGCAG | 4130 fluorescence intensity (a.u.)
15 | CAACCATTAGAACTGCTAGTTGCTGGATATCTAGATGCATCGGAGTCACCTAGTGCAG | 3520 fluorescence intensity (a.u.)
16 | TTGTTTAGACTTAAACTCAATGACTTAAACTTGGAAATCACGGAGTCACCTAGTGCAG | 30600 fluorescence intensity (a.u.)
17 | GTTACCAGTGAGTCAATCATCTCCCTTTCTTTCCTCTCTTCGGAGTCACCTAGTGCAG | 4540 fluorescence intensity (a.u.)
18 | GAGCCGAGGCGTCACCCTAGTTTTGCGGTGGAGGGGTACGCGGAGTCACCTAGTGCAG | 3570 fluorescence intensity (a.u.)
19 | GCCAATAGCTGACGATATGTAAGTAGGTAACAACAGAGCACGGAGTCACCTAGTGCAG | 3530 fluorescence intensity (a.u.)
20 | TCTCACCTCTCACTTCGACTTCTCGTCGCTGGCCGCCTCTCGGAGTCACCTAGTGCAG | 8080 fluorescence intensity (a.u.)
21 | GACATTACGGGCCCACAAGTACGCGTCCCCACCAGCCATACGGAGTCACCTAGTGCAG | 3320 fluorescence intensity (a.u.)

Row | Sequence | binding signal
22 | TGGGCTCACCACGTCTCCAGATTCCAGATCACCCGCCCGCCGGAGTCACCTAGTGCAG | 4830 fluorescence intensity (a.u.)
23 | CAATTTTCCCCAACTCGATCGACGCGGACCGGACCGGACCCGGAGTCACCTAGTGCAG | 3360 fluorescence intensity (a.u.)
24 | GAAGAACGCTAAAATTTAGTGACGCACTCTGAATGGCCTCCGGAGTCACCTAGTGCAG | 3320 fluorescence intensity (a.u.)
25 | AAAATGTACCTAAGCGATCAGGCCAACCAGGCCAGGGGCCCGGAGTCACCTAGTGCAG | 3170 fluorescence intensity (a.u.)
26 | ATTTGAACAACCTTAGCCACATAGACCCATATTAGTGTAGCGGAGTCACCTAGTGCAG | 3870 fluorescence intensity (a.u.)
27 | AGCCAATTGTTGGTGCAGTAGCACAATACGCCCATGTCATCGGAGTCACCTAGTGCAG | 3610 fluorescence intensity (a.u.)
28 | ACAGATTTTCGACCACAAAGAGATGGCAATGAGTTTCCTTCGGAGTCACCTAGTGCAG | 15300 fluorescence intensity (a.u.)
29 | CATCTTCCACTCAGTCACTCTCCGTCCTCTCCTGTCGACGCGGAGTCACCTAGTGCAG | 4050 fluorescence intensity (a.u.)
30 | GTACTACCTAGTTAGGGATTTCGAATTAAGCTCGATCACGCGGAGTCACCTAGTGCAG | 3430 fluorescence intensity (a.u.)
31 | GGCCTCCACGCTGCGTTGCCGCAATTATGCGTCACCGCGTCGGAGTCACCTAGTGCAG | 6770 fluorescence intensity (a.u.)
32 | TCCACCCTCACTGACATGTGGGCCACGCCCCTCGCGCGGGCGGAGTCACCTAGTGCAG | 3820 fluorescence intensity (a.u.)
33 | TGTACCGCGTGCTACAGCTGGCGATAATTCTATCGTCGACCGGAGTCACCTAGTGCAG | 4020 fluorescence intensity (a.u.)
34 | GCCTCGATCGCGGCGGTGGCGGTGGGGAGGGGAGCGCACCCGGAGTCACCTAGTGCAG | 5050 fluorescence intensity (a.u.)
35 | TTTTATGTGATGTCATCCATACACTAGATCTAGACTGATTCGGAGTCACCTAGTGCAG | 7700 fluorescence intensity (a.u.)
36 | ATGTCGCTGTGGCTCATCCGGCCCAAGCCCATTTCCCCACCGGAGTCACCTAGTGCAG | 29500 fluorescence intensity (a.u.)
37 | ACTGCGGTGCGCCCGTTCGCACACCATCATGCTCTGTTGCCGGAGTCACCTAGTGCAG | 3530 fluorescence intensity (a.u.)
38 | GGCAGCGGCCACAGAGTGACACGGCGGCGGCCAGAGCAGCCGGAGTCACCTAGTGCAG | 5410 fluorescence intensity (a.u.)
39 | CGGCACTCTCTGCCAGCTGGGTTCCACCGTTTCGTCGAGGCGGAGTCACCTAGTGCAG | 4300 fluorescence intensity (a.u.)
40 | CATCATCATCGTGGTGGTGACGTGTGGTTCGGCACTCCGGCGGAGTCACCTAGTGCAG | 8410 fluorescence intensity (a.u.)
41 | GAAAGGCACTTACATCACATGTGTGGACATGTGTCTCTTCCGGAGTCACCTAGTGCAG | 3200 fluorescence intensity (a.u.)
42 | GCCGAGAAGGCATCAACGGCACTGGCGAGGCCCTCTCAGCCGGAGTCACCTAGTGCAG | 39600 fluorescence intensity (a.u.)

Two entries from above, reformatted:
CTCTCTCTCTCGCCTCCGCCTCATCATCCTCTCCTCTCCTCGGAGTCACCTAGTGCAG
  binding signal = 3240 fluorescence intensity (a.u.)
AGCCAATTGTTGGTGCAGTAGCACAATACGCCCATGTCATCGGAGTCACCTAGTGCAG
  binding signal = 3610 fluorescence intensity (a.u.)
